Experimental data published in PubChem BioAssay AID2685 (National Center for Advancing Translational Sciences (NCATS), 2010).
This is one part of the list. These are further read-outs of the screen, such as a control signal, another cell line or another target. No call is given for them. Compounds called inactive in the main read-out are mostly missing here. Potencies come from curve fits of mixed quality, noted in brackets.

Assay: qHTS Assay for Lipid Storage Modulators in Drosophila S3 Cells;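 for cell number change: cells counted by Cell Tracker Red CMTPX staining in the red channel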
Settings: BODIPY lipid droplet fluorescence, 18-24 h; for cell number change: measured here: cell count max response, cells fed with added oleic acid
In short: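 Drosophila S3 cells loaded with oleic acid (400 uM, as added) and compounds at several concentrations; lipid droplets imaged by 488-nm laser-scanning cytometry, 500–530 nm intensity and object ratio to cell channel. Percent activity normalized to 20 uM Triacsin C.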

[1] = measured here: cell number channel AC50, cells fed with added oleic acid
[2] = measured here: lipid fluorescence (Fed channel) AC50, cells fed with added oleic acid

Row | Structure (SMILES) | AC50 [1] | cell number change [%] | AC50 [2]
1 | COc1cc(C(=O)c2c(C)c(CCC#N)n3ccccc23)cc(OC)c1OC | 6.51 µM [rising, single point] |  | 
2 | Cc1cc(NC(=O)Cc2ccsc2)ccc1Br | 10.3 µM [rising, single point] | 34 | 29.1 µM [rising, single point]
3 | CN1CCN(C(=O)c2cc3ccccc3[nH]2)CC1 |  | -6.57 | 
4 | O=C(CCCCC(=O)NNC(=O)COc1ccccc1)NNC(=O)COc1ccccc1 | 25.9 µM [rising, partial curve] | 71.4 | 
5 | CCCCN(CCCC)C(=S)NC(=O)C(C)(C)C |  | -23.7 | 0.0651 µM [falling, full curve, poor fit]
6 | Cc1ccc(C(=O)C(OC(=O)c2cnccn2)c2ccccc2)cc1C (stereo not given) |  | 26.8 | 3.66 µM [rising, partial curve]
7 | Cc1cccc(C(=O)OCC(=O)c2c(N)n(CC(C)C)c(=O)n(C)c2=O)c1[N+](=O)[O-] | 1.16 µM [rising, partial curve] | 0.278 | 
8 | O=C(N/C(=C/c1ccc(Br)cc1)C(=O)N1CCCC1=O)c1ccco1 |  | -20.6 | 
9 | O=C(CCNC(=O)c1ccccc1Cl)NCc1ccncc1 |  | 10.1 | 29.1 µM [falling, single point]
10 | N#CCCN(C(=O)COC(=O)c1cc2ccccc2oc1=O)c1ccccc1 | 13 µM [rising, partial curve, poor fit] | 31.5 | 4.61 µM [rising, partial curve]
11 | Cc1c(S(=O)(=O)Nc2ccc3c(c2)OCCO3)c(=O)n(C)c(=O)n1C |  | 1.52 | 
12 | O=C(CSc1nc2ccccc2c2nc3ccccc3n12)NCc1ccco1 | 0.82 µM [rising, partial curve] |  | 0.092 µM [rising, full curve, poor fit]
13 | CC(C)N(Cc1ccccc1)C(=O)/C=C/c1ccccc1[N+](=O)[O-] |  | -19 | 29.1 µM [falling, single point]
14 | CCOc1ccccc1OCC(=O)NNC(=S)NC1CCCCC1 |  | 13.8 | 
15 | COC(=O)c1sccc1NC(=O)C1CC(C)=C(C)CC1C(=O)O (stereo not given) | 20.6 µM [falling, single point] | -35.9 | 29.1 µM [falling, single point]
16 | COc1ccc2cc(CN(Cc3cccnc3)Cc3nnnn3Cc3ccccc3)c(=O)[nH]c2c1 | 2.06 µM [rising, full curve] | 69.9 | 6.51 µM [rising, single point]
17 | O=C(NNC(=O)c1ccc(S(=O)(=O)N2CCCC2)cc1)c1ccc(Br)cc1 |  | 27.7 | 
18 | Cc1nn2cc(-c3ccccc3)nc2s1 |  | 9.84 | 10.3 µM [rising, partial curve]
19 | CC(Sc1ncnc2sc(-c3ccccc3)cc12)C(=O)N1CCNC1=O (stereo not given) |  | 0.387 | 7.31 µM [rising, partial curve]

Row | Structure (SMILES) | AC50 [1] | cell number change [%] | AC50 [2]
20 | Cc1cc(N/N=C/c2ccc(O)cc2O)c2ccccc2n1 |  | -16.3 | 1.46 µM [rising, partial curve]
21 | CC1(C)C(C#N)=C(N)OC2=C1C(=O)CCC2 | 0.58 µM [rising, single point] |  | 
22 | CC1(C)Cc2c(sc(NC(=O)c3ccco3)c2C(=O)O)CO1 | 0.0058 µM [falling, full curve, poor fit] | -10.9 | 0.146 µM [falling, full curve, poor fit]
23 | COc1ccc2cc(C#N)c(NC(C)C)nc2c1 | 20.6 µM [rising, partial curve] | 98.2 | 
24 | CNC(=O)c1ccc(N(Cc2ccccc2)S(C)(=O)=O)cc1 |  | 1.76 | 5.8 µM [falling, full curve]
25 | CN(CC(=O)NCCc1ccccn1)S(=O)(=O)c1ccc(Cl)cc1 |  | -0.481 | 
26 | C/C(CC(=O)NC12CC3CC(CC(C3)C1)C2)=N\NC(=O)Cc1cccs1 |  | -4.6 | 20.6 µM [falling, single point]
27 | C=C(C)CSc1nnc(-c2cccc(S(=O)(=O)N(C)C)c2)n1-c1cc(OC)ccc1OC | 6.51 µM [rising, single point] |  | 6.51 µM [rising, single point]
28 | CCCc1ccc(Oc2cn[nH]c2-c2ccc(O)cc2O)cc1 | 29.1 µM [falling, single point] | -49.7 | 2.06 µM [falling, partial curve, poor fit]
29 | COc1cc(/C=N/N2CCCCC2)cc([N+](=O)[O-])c1O |  | 22.9 | 29.1 µM [rising, single point]
30 | CC1CN(S(=O)(=O)c2ccc(C(=O)Nc3sccc3C(N)=O)cc2)CC(C)O1 (stereo not given) |  | -0.348 | 0.651 µM [rising, partial curve]
31 | O=C(CNS(=O)(=O)c1ccc2c(c1)OCCCO2)N1CCN(c2ccc(F)cc2)CC1 |  | -2.08 | 1.46 µM [rising, partial curve, poor fit]
32 | COc1cccc(CNC(=O)c2cc(=O)[nH]c3ccc(S(=O)(=O)N4CCOCC4)cc23)c1 | 3.66 µM [falling, partial curve] | -4.65 | 
33 | CCOc1ccc(N(CC(=O)NCc2ccccc2)S(=O)(=O)c2c(C)noc2C)cc1 | 0.651 µM [rising, full curve, poor fit] | 38.5 | 0.651 µM [rising, full curve]
34 | Cc1ccc(-n2nc(C)c3c(C)c(CCC(=O)NCc4ccco4)c(C)nc32)cc1 |  | -24.4 | 1.84 µM [falling, partial curve]
35 | CCc1c(O)nc(SC2CC(=O)N(c3ccc(F)c(Cl)c3)C2=O)[nH]c1=O (stereo not given) |  | 8.73 | 6.51 µM [rising, single point]
36 | Cc1cccc2nc(CNC(=O)C3CCC(=O)N(Cc4ccccc4F)C3)cn12 (stereo not given) |  | 11.7 | 
37 | Fc1ccc(-n2nnc(-c3ccccc3Cl)n2)cc1 |  | -18.6 | 29.1 µM [falling, single point]
38 | Cc1c(C(=O)Nc2ccccc2Cl)oc2ccc(S(=O)(=O)N3CCC4(CC3)OCCO4)cc12 |  | -14.2 | 0.231 µM [falling, full curve, poor fit]

Row | Structure (SMILES) | AC50 [1] | cell number change [%] | AC50 [2]
39 | CN(CC(=O)Nc1ccccc1Br)C(=O)CNC(=O)c1ccc2c(c1)OCO2 |  | -0.854 | 0.00651 µM [rising, full curve, poor fit]
40 | CCOC(=O)C1=C(COC(=O)/C=C/c2ccc(C)o2)NC(=O)NC1C (stereo not given) |  | 8.17 | 32.6 µM [rising, single point]
41 | Cc1n[nH]c(C)c1CCC(=O)N/N=C/c1c(C)[nH]c2ccccc12 | 16.4 µM [rising, partial curve] | 42.5 | 14.6 µM [rising, partial curve]
42 | O=C(NC(=S)Nc1ccccc1N1CCN(C(=O)c2ccccc2)CC1)c1cccs1 | 1.46 µM [rising, partial curve, poor fit] | 14.4 | 
43 | COc1cccc(-c2cc(C(F)(F)F)nc(NCc3ccco3)n2)c1 | 7.31 µM [falling, partial curve] | -32.8 | 16.4 µM [falling, single point]
44 | COc1ccccc1-n1cnc2c(c1=O)c1nc3ccccc3nc1n2-c1ccc(C)cc1 | 2.91 µM [rising, single point] | 5.31 | 
45 | COc1cc(-c2nc(-c3cccc(C(F)(F)F)c3)no2)cc(OC)c1OC | 2.59 µM [rising, partial curve] |  | 2.59 µM [rising, partial curve]
46 | C#CCOCCOCCOCCNc1nc(N2CCN(C(=O)[C@H]([C@@H](C)CC)n3cc(CCC(=O)O)nn3)CC2)nc(N2CCN(C(=O)[C@H](C)n3cc(CCCN=C(N)N)nn3)CC2)n1 |  | -22.2 | 8.2 µM [falling, partial curve]
47 | CN(C)c1ccc(N=Nc2cccc3ccoc23)cc1 | 3.66 µM [falling, full curve] | -67.7 | 5.17 µM [falling, full curve]
48 | Cc1cc(NC(=O)CC2(CC(=O)O)CCCC2)n(C)n1 |  | -1.96 | 32.6 µM [falling, partial curve, poor fit]
49 | COc1ccccc1CNC(=O)[C@H](NC(=O)C1CCN(C(=O)[C@@H](N)CCSC)CC1)C(C)C |  | 26.9 | 16.4 µM [rising, single point]
50 | COc1ccccc1NC(=O)C(C)OC(=O)CCC1CCCCC1 (stereo not given) |  | -4.44 | 0.231 µM [falling, full curve, poor fit]
51 | O=C(Nc1ccc2oc(-c3cccnc3)nc2c1)c1cccnc1 |  | -19.4 | 6.51 µM [rising, partial curve, poor fit]
52 | NC(=O)Nc1cc(Cl)ccc1Cl |  | -13.5 | 29.1 µM [falling, single point]
53 | O=S(=O)(Nc1ccc(S(=O)(=O)Nc2cccc3ccccc23)cc1)c1ccccc1 | 2.31 µM [rising, partial curve] |  | 1.84 µM [rising, partial curve]
54 | c1ccc(CN2CCC3(CCCc4ccccc43)CC2)cc1 |  | -0.346 | 2.31 µM [rising, partial curve]
55 | O=Cc1ccc(-n2cc(C=O)c3ccccc32)cc1 |  | -14.1 | 18.4 µM [falling, single point]
56 | Cc1nn(C)cc1C(C(=O)NC1CCCCC1)N(C(=O)c1cnccn1)c1ccc(Oc2ccccc2)cc1 (stereo not given) |  | -10.7 | 3.66 µM [rising, single point]
57 | COc1ccc(C(=O)NC2CCN(S(=O)(=O)c3ccc(C)cc3)CC2)cc1 |  | -0.246 | 3.26 µM [rising, single point]
